The results in this text go back to the M2OR odorant receptor database.

This is a selection; strong and weak results do not stand in their true shares. Calls are pooled over several reports, among them a noisy single-well screen. This is one part of the list.
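Also: active if original authors judged signal statistically different from baseline.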

In the first test the test system is T1, OR8S1.
T1 sequence (whole entry): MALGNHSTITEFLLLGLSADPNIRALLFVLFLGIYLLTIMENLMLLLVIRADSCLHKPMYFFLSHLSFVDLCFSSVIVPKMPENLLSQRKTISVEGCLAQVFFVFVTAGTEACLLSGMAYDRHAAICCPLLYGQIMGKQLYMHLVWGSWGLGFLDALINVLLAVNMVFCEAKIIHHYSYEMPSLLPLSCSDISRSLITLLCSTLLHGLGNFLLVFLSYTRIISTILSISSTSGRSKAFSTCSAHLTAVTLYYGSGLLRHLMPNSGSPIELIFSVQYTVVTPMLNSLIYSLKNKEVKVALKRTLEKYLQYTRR
Particulars: stereoisomer not certain. A digest of the protocol:
(§1)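 Each receptor–molecule pair is labelled responsive or non-responsive (inactive) according to whether the original authors judged the measured signal statistically different from baseline. The data were taken from the main text and supplementary material of published papers and checked for typos and inconsistencies. Assay methods differed by source, with transient luciferase assays in mammalian cell lines being common.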
For `C=CCc1ccc(OC)c(OC)c1`, the “odorant receptor agonist call” value is “inactive”.
`CCCCCC(C)=O`: the “odorant receptor agonist call” value was “inactive”.
With `CC(C)=CCCC(C)=CC=O`, the “odorant receptor agonist call” value was “inactive”.
Take `CCCCCOC(C)=O`: the “odorant receptor agonist call” value was “inactive”.
Take `CC1CCC(C(C)C)C(O)C1` (stereo not given): the “odorant receptor agonist call” value is “inactive”.
Still for that read-out and setting: for `COc1ccccc1O` the value was “inactive”.
Turning to `C=CCSCC=C`, the “odorant receptor agonist call” value is “inactive”.
Consider `CCCCCC(=O)O`, for which the “odorant receptor agonist call” value was “inactive”.
Same read-out and setting: with `C=CCc1ccc(OC(C)=O)c(OC)c1` the entry was “inactive”; with `CC(C)C(=O)O`, “inactive”.
`O=C1CCCCCCCCCCCC(=O)OCCO1`: the “odorant receptor agonist call” value is “inactive”.
Turning to `C=CC(C)(O)CCC=C(C)C` (stereo not given), the “odorant receptor agonist call” value was “inactive”.
The same measure, in the same setting: with `CC(=O)c1ccccc1` the entry was “inactive”.
Take `CC(=O)C(C)=O`: the “odorant receptor agonist call” value was “inactive”.
Regarding `O=C1CCCCCCCCCCCCCCO1`, the “odorant receptor agonist call” value is “inactive”.
For the compound `CC(C)C=O`, the “odorant receptor agonist call” value is “inactive”.
The same measure, in the same setting: for `CC(=O)OCC=C(C)CCC=C(C)C` the value was “inactive”; for `O=CCc1ccccc1`, “inactive”; for `CC(C)CC(=O)O`, “inactive”.
The same measure, in the same setting: with `COC(=O)c1ccccc1O` the entry was “inactive”.
Same read-out and setting: for `CC12C=CCC1C1CCC3CC(=O)CCC3(C)C1CC2` (stereo not given) the value was “inactive”.
Regarding `CC=Cc1ccc(O)c(OC)c1`, the “odorant receptor agonist call” value is “inactive”.
For the compound `CC(C)CCC(=O)O`, the “odorant receptor agonist call” value is “inactive”.
For the compound `CCCCCCCCCCC=O`, the “odorant receptor agonist call” value is “inactive”.

The next test relates to T2, OR8U1.
T2 sequence (whole entry): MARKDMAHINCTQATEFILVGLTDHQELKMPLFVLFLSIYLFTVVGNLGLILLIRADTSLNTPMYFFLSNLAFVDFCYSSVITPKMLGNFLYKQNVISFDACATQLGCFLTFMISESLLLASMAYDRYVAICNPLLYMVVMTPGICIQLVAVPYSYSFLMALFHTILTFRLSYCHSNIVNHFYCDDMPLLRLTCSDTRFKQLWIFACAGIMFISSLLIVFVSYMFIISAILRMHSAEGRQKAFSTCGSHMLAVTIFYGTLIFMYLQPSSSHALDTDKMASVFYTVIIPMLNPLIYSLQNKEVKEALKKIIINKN
Particulars: stereoisomer not certain. A digest of the protocol: as §1
For `C=CCc1ccc(OC)c(OC)c1`, the “odorant receptor agonist call” value is “inactive”.
Take `CCCCCC(C)=O`: the “odorant receptor agonist call” value was “inactive”.
For the compound `CC(C)=CCCC(C)=CC=O`, the “odorant receptor agonist call” value is “inactive”.
As to `CCCCCOC(C)=O`, the “odorant receptor agonist call” value was “inactive”.
For `CC1CCC(C(C)C)C(O)C1` (stereo not given), the “odorant receptor agonist call” value was “inactive”.
`COc1ccccc1O`: the “odorant receptor agonist call” value is “inactive”.
Regarding `C=CCSCC=C`, the “odorant receptor agonist call” value was “inactive”.
Consider `CCCCCC(=O)O`, for which the “odorant receptor agonist call” value is “inactive”.
The same measure, in the same setting: with `C=CCc1ccc(OC(C)=O)c(OC)c1` the entry was “inactive”; with `CC(C)C(=O)O`, “inactive”; with `O=C1CCCCCCCCCCCC(=O)OCCO1`, “inactive”.
Same read-out and setting: with `C=CC(C)(O)CCC=C(C)C` (stereo not given) the entry was “inactive”.
On the same count and under the same terms, for `CC(=O)c1ccccc1` the value was “inactive”.
For the compound `CC(=O)C(C)=O`, the “odorant receptor agonist call” value was “inactive”.
`O=C1CCCCCCCCCCCCCCO1`: the “odorant receptor agonist call” value was “inactive”.
Turning to `CC(C)C=O`, the “odorant receptor agonist call” value was “inactive”.
On to `CC(=O)OCC=C(C)CCC=C(C)C`, for which the “odorant receptor agonist call” value is “inactive”.
On the same count and under the same terms, with `O=CCc1ccccc1` the entry was “inactive”; with `CC(C)CC(=O)O`, “inactive”.
On the same count and under the same terms, for `COC(=O)c1ccccc1O` the value was “inactive”; for `CC12C=CCC1C1CCC3CC(=O)CCC3(C)C1CC2` (stereo not given), “inactive”; for `CC=Cc1ccc(O)c(OC)c1`, “inactive”.
Take `CC(C)CCC(=O)O`: the “odorant receptor agonist call” value is “inactive”.
In the case of `CCCCCCCCCCC=O`, the “odorant receptor agonist call” value was “inactive”.

The target in another test is T3, OR8U3 (Homo sapiens) (UniProt Q8NH85).
T3 sequence (whole entry): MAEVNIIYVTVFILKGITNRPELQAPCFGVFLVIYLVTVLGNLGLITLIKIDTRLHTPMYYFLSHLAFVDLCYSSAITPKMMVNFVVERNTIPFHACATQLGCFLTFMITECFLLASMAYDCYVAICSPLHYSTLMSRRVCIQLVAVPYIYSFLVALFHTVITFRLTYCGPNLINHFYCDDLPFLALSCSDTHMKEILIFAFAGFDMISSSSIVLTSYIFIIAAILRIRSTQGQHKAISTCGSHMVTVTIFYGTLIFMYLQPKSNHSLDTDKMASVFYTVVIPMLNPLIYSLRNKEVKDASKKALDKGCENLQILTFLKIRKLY
Particulars: stereoisomer not certain. In outline:
as §1
On to `C=C(C)C1CC=C(C)C(=O)C1` (stereo not given), for which the “odorant receptor agonist call” value is “active”.
For the compound `CC(=O)c1ccccc1`, the “odorant receptor agonist call” value was “active”.
Same read-out and setting: for `CC12C=CCC1C1CCC3CC(=O)CCC3(C)C1CC2` (stereo not given) the value was “inactive”.

The subject of another test is T4, OR8U8.
T4 sequence (whole entry): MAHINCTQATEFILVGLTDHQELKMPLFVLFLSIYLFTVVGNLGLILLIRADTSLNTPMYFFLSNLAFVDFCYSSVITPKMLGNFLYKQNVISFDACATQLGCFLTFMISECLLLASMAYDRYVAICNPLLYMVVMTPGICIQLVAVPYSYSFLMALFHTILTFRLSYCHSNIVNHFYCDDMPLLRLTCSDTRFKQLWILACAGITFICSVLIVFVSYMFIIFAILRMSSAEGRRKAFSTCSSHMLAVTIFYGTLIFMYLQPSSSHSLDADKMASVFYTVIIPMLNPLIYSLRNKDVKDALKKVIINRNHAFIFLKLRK
Particulars: stereoisomer not certain. In outline: as §1
In the case of `C=CCc1ccc(OC)c(OC)c1`, the “odorant receptor agonist call” value is “inactive”.
For `CCCCCC(C)=O`, the “odorant receptor agonist call” value was “inactive”.
`CC(C)=CCCC(C)=CC=O`: the “odorant receptor agonist call” value is “inactive”.
In the case of `CCCCCOC(C)=O`, the “odorant receptor agonist call” value was “inactive”.
As for `CC1CCC(C(C)C)C(O)C1` (stereo not given), the “odorant receptor agonist call” value was “active”.
With `COc1ccccc1O`, the “odorant receptor agonist call” value was “inactive”.
Same read-out and setting: for `C=CCSCC=C` the value was “inactive”; for `CCCCCC(=O)O`, “inactive”; for `C=CCc1ccc(OC(C)=O)c(OC)c1`, “inactive”.
Still for that read-out and setting: with `CC(C)C(=O)O` the entry was “inactive”.
For the compound `O=C1CCCCCCCCCCCC(=O)OCCO1`, the “odorant receptor agonist call” value was “inactive”.
The same measure, in the same setting: for `C=CC(C)(O)CCC=C(C)C` (stereo not given) the value was “inactive”; for `CC(=O)c1ccccc1`, “inactive”; for `CC(=O)C(C)=O`, “inactive”.
As for `O=C1CCCCCCCCCCCCCCO1`, the “odorant receptor agonist call” value was “inactive”.
For `CC(C)C=O`, the “odorant receptor agonist call” value is “inactive”.
As for `CC(=O)OCC=C(C)CCC=C(C)C`, the “odorant receptor agonist call” value was “inactive”.
Take `O=CCc1ccccc1`: the “odorant receptor agonist call” value was “inactive”.
In the case of `CC(C)CC(=O)O`, the “odorant receptor agonist call” value is “active”.
`COC(=O)c1ccccc1O`: the “odorant receptor agonist call” value is “inactive”.
Regarding `CC12C=CCC1C1CCC3CC(=O)CCC3(C)C1CC2` (stereo not given), the “odorant receptor agonist call” value was “inactive”.
Same read-out and setting: with `CC=Cc1ccc(O)c(OC)c1` the entry was “inactive”.
For `CC(C)CCC(=O)O`, the “odorant receptor agonist call” value was “inactive”.
Same read-out and setting: with `CCCCCCCCCCC=O` the entry was “inactive”.
